Reference: patent US9909086B2, “Green glycine betaine derivative compounds and compositions containing same” (priority 2012, dated 2018)
At least one structure is not confirmed: it was looked up by name or label, or the drawing left a doubt.

Test: Critical Micelle Concentration (CMC)
Type: physicochemical
Conditions: T = 24° C.; pure

In the case of CCCCCCCCCCCCNC(=O)C[N+](C)(C)C.CS(=O)(=O)[O-] [GB Lauric amide, Betainyl amino dodecane methane sulfonate], the CMC is reported as 1.2 10^−4 mol/l.
